In test [1] the target is HA-NP (HA-tagged nucleoprotein of A/Puerto Rico/8/1934 H1N1) (influenza A virus A/Puerto Rico/8/1934 (PR8, H1N1)) (UniProt P03466). The test is described as follows: co-IP.
Test [2] has the same target. The test is described as follows: co-IP. The source holds these as a separate data set.

By UniProt entry, the sequences of proteins in these tests, tags left out. Residues count along the entry.
UniProt P03466: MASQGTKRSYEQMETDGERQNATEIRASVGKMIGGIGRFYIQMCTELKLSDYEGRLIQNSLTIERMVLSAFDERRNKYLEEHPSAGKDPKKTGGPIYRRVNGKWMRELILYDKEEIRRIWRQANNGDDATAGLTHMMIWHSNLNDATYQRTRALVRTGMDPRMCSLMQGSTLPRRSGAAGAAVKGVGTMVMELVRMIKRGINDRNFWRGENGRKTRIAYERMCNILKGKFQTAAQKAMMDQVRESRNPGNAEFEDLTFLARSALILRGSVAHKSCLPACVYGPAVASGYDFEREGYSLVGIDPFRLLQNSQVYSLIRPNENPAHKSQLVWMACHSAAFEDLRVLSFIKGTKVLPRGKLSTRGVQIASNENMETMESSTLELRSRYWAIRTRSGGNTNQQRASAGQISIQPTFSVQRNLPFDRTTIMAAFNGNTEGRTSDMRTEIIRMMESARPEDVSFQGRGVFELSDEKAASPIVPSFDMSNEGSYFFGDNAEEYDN
UniProt Q9NX58, residues 1-167: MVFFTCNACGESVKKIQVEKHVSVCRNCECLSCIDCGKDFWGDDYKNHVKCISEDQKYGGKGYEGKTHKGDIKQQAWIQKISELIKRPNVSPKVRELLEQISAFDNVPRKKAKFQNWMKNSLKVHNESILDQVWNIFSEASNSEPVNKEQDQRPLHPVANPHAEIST

Read-outs that look alike come from different tables or passages of the source. No constants are given. Whether binding was seen depends on the method and setting. Binding seen in cells or lysates may run through a third protein. Some results given as binding are weak or reduced against the parent protein; the word gives no strength. For some assays here: Tags and fused reporters may be left off the sequences shown.

“Flag-LYAR N-terminal domain (NTD; amino acids 1 to 167) (from UniProt Q9NX58 1-167) (domain or fragment)”: the binding result in test [1] was “no binding”.

B1: PLSCR1 (Flag-tagged, detected with anti-Flag) (protein, UniProt O15162 1-318)
chain: MDKQNSQMNASHPETNLPVGYPPQYPPTAFQGPPGYSGYPGPQVSYPPPPAGHSGPGPAGFPVPNQPVYNQPVYNQPVGAAGVPWMPAPQPPLNCPPGLEYLSQIDQILIHQQIELLEVLTGFETNNKYEIKNSFGQRVYFAAEDTDCCTRNCCGPSRPFTLRIIDNMGQEVITLERPLRCSSCCCPCCLQEIEIQAPPGVPIGYVIQTWHPCLPKFTIQNEKREDVLKISGPCVVCSCCGDVDFEIKSLDEQCVVGKISKHWTGILREAFTDADNFGIQFPLDLDVKMKAVMIGACFLIDFMFFESTGSQEQKSGVW
As to B1, the binding entry in test [2] is listed as “binds”.

The values above are taken from PMC6232469.
